Test results as given in ChEMBL document CHEMBL5674883, “The Heterochromatin Landscape in Migrating Cells and the Importance of H3K27me3 for Associated Transcriptome Alterations” (Cells, 2018).
Further values from the same series stand in other lists.

The chains behind the UniProt entries cited, without tags or fusion partners.
UniProt Q61188, whole entry: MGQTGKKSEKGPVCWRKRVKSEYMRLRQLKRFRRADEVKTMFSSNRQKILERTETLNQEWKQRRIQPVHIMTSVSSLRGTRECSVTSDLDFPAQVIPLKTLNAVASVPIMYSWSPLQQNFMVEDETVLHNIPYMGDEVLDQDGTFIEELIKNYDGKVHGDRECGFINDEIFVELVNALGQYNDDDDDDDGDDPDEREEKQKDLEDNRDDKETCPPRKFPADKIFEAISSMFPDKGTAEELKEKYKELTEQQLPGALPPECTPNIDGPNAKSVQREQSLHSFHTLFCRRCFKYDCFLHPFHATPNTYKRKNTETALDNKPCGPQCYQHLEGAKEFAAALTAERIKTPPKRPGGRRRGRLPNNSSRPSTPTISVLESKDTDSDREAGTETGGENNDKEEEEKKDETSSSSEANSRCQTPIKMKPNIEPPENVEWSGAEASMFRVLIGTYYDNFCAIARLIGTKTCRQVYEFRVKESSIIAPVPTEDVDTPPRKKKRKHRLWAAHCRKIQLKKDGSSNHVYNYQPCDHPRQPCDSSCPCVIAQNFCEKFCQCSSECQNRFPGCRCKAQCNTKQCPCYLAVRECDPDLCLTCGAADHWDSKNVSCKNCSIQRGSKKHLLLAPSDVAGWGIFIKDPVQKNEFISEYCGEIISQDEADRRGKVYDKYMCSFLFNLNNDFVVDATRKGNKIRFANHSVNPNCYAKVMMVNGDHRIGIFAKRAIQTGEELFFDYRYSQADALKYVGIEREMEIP

Assays:
Assay type in all cases: cell-based
[1] = target: Histone-lysine N-methyltransferase EZH2 (Mus musculus) (UniProt Q61188); experiment: Inhibition of EZH2 in mouse B16-F1 migrating cells assessed as fold change in H3K27me3-dependent regulated Serpinb9b-mRNA expression at 3 uM measured by ChIP-seq analysis relative to control cells
[2] = target: Histone-lysine N-methyltransferase EZH2 (Mus musculus) (UniProt Q61188); experiment: Inhibition of EZH2 in mouse B16-F1 migrating cells assessed as fold change in H3K27me3-buffered regulated Mt1-mRNA expression at 3 uM measured by ChIP-seq analysis relative to control cells
[3] = target: Histone-lysine N-methyltransferase EZH2 (Mus musculus) (UniProt Q61188); experiment: Inhibition of EZH2 in mouse B16-F1 migrating cells assessed as fold change in H3K27me3-buffered regulated Rttn-mRNA expression at 3 uM measured by ChIP-seq analysis relative to control cells
[4] = target: Histone-lysine N-methyltransferase EZH2 (Mus musculus) (UniProt Q61188); experiment: Inhibition of EZH2 in mouse B16-F1 migrating cells assessed as fold change in H3K27me3-buffered regulated 2810403A07Rik-mRNA expression at 3 uM measured by ChIP-seq analysis relative to control cells
[5] = target: Histone-lysine N-methyltransferase EZH2 (Mus musculus) (UniProt Q61188); experiment: Inhibition of EZH2 in mouse B16-F1 migrating cells assessed as fold change in H3K27me3-buffered regulated Gm4876-mRNA expression at 3 uM measured by ChIP-seq analysis relative to control cells
[6] = target: Histone-lysine N-methyltransferase EZH2 (Mus musculus) (UniProt Q61188); experiment: Inhibition of EZH2 in mouse B16-F1 migrating cells assessed as fold change in H3K27me3-buffered regulated Kif15-mRNA expression at 3 uM measured by ChIP-seq analysis relative to control cells
[7] = target: Histone-lysine N-methyltransferase EZH2 (Mus musculus) (UniProt Q61188); experiment: Inhibition of EZH2 in mouse B16-F1 migrating cells assessed as fold change in H3K27me3-buffered regulated Dhcr24-mRNA expression at 3 uM measured by ChIP-seq analysis relative to control cells
[8] = target: Histone-lysine N-methyltransferase EZH2 (Mus musculus) (UniProt Q61188); experiment: Inhibition of EZH2 in mouse B16-F1 migrating cells assessed as fold change in H3K27me3-buffered regulated Mboat2-mRNA expression at 3 uM measured by ChIP-seq analysis relative to control cells
[9] = target: Histone-lysine N-methyltransferase EZH2 (Mus musculus) (UniProt Q61188); experiment: Inhibition of EZH2 in mouse B16-F1 migrating cells assessed as fold change in H3K27me3-dependent regulated Nov-mRNA expression at 3 uM measured by ChIP-seq analysis relative to control cells
[10] = target: Histone-lysine N-methyltransferase EZH2 (Mus musculus) (UniProt Q61188); experiment: Inhibition of EZH2 in mouse B16-F1 migrating cells assessed as fold change in H3K27me3-buffered regulated Btd-mRNA expression at 3 uM measured by ChIP-seq analysis relative to control cells
[11] = target: Histone-lysine N-methyltransferase EZH2 (Mus musculus) (UniProt Q61188); experiment: Inhibition of EZH2 in mouse B16-F1 migrating cells assessed as fold change in H3K27me3-buffered regulated Tpi1-mRNA expression at 3 uM measured by ChIP-seq analysis relative to control cells
[12] = target: Histone-lysine N-methyltransferase EZH2 (Mus musculus) (UniProt Q61188); experiment: Inhibition of EZH2 in mouse B16-F1 migrating cells assessed as fold change in H3K27me3-buffered regulated Dusp5-mRNA expression at 3 uM measured by ChIP-seq analysis relative to control cells
[13] = target: Histone-lysine N-methyltransferase EZH2 (Mus musculus) (UniProt Q61188); experiment: Inhibition of EZH2 in mouse B16-F1 migrating cells assessed as fold change in H3K27me3-buffered regulated Tuba1a-mRNA expression at 3 uM measured by ChIP-seq analysis relative to control cells
[14] = target: Histone-lysine N-methyltransferase EZH2 (Mus musculus) (UniProt Q61188); experiment: Inhibition of EZH2 in mouse B16-F1 migrating cells assessed as fold change in H3K27me3-buffered regulated Map6-mRNA expression at 3 uM measured by ChIP-seq analysis relative to control cells
[15] = target: T1, RNA polymerase II (Mus musculus) (UniProt P08775+Q8CFI7+P97760+A0A3Q4L2S8+Q80UW8+P61219+P62488+Q923G2+P60898+O08740+Q63871+P62876); experiment: Inhibition of RNA polymerase II in mouse B16-F1 migrating cells assessed as fold change in Slc35b2-RNA stability at 0.1 mM measured by ChIP-seq analysis relative to control cells
[16] = target: T1, RNA polymerase II (Mus musculus); experiment: Inhibition of RNA polymerase II in mouse B16-F1 migrating cells assessed as fold change in Hnrnpa2b1-RNA stability at 0.1 mM measured by ChIP-seq analysis relative to control cells
[17] = target: T1, RNA polymerase II (Mus musculus); experiment: Inhibition of RNA polymerase II in mouse B16-F1 migrating cells assessed as fold change in Chmp1a-RNA stability at 0.1 mM measured by ChIP-seq analysis relative to control cells
[18] = target: T1, RNA polymerase II (Mus musculus); experiment: Inhibition of RNA polymerase II in mouse B16-F1 migrating cells assessed as fold change in Ftl1-RNA stability at 0.1 mM measured by ChIP-seq analysis relative to control cells
[19] = target: T1, RNA polymerase II (Mus musculus); experiment: Inhibition of RNA polymerase II in mouse B16-F1 migrating cells assessed as fold change in Nudcd2-RNA stability at 0.1 mM measured by ChIP-seq analysis relative to control cells
[20] = target: T1, RNA polymerase II (Mus musculus); experiment: Inhibition of RNA polymerase II in mouse B16-F1 migrating cells assessed as fold change in Zeb2-RNA stability at 0.1 mM measured by ChIP-seq analysis relative to control cells
[21] = target: T1, RNA polymerase II (Mus musculus); experiment: Inhibition of RNA polymerase II in mouse B16-F1 migrating cells assessed as fold change in Uap1l1-RNA stability at 0.1 mM measured by ChIP-seq analysis relative to control cells
[22] = target: T1, RNA polymerase II (Mus musculus); experiment: Inhibition of RNA polymerase II in mouse B16-F1 migrating cells assessed as fold change in Smim4-RNA stability at 0.1 mM measured by ChIP-seq analysis relative to control cells
[23] = target: T1, RNA polymerase II (Mus musculus); experiment: Inhibition of RNA polymerase II in mouse B16-F1 migrating cells assessed as fold change in Ccar1-RNA stability at 0.1 mM measured by ChIP-seq analysis relative to control cells
[24] = target: T1, RNA polymerase II (Mus musculus); experiment: Inhibition of RNA polymerase II in mouse B16-F1 migrating cells assessed as fold change in Naa10-RNA stability at 0.1 mM measured by ChIP-seq analysis relative to control cells
[25] = target: T1, RNA polymerase II (Mus musculus); experiment: Inhibition of RNA polymerase II in mouse B16-F1 migrating cells assessed as fold change in Vhl-RNA stability at 0.1 mM measured by ChIP-seq analysis relative to control cells
[26] = target: T1, RNA polymerase II (Mus musculus); experiment: Inhibition of RNA polymerase II in mouse B16-F1 migrating cells assessed as fold change in Atxn10-RNA stability at 0.1 mM measured by ChIP-seq analysis relative to control cells
[27] = target: T1, RNA polymerase II (Mus musculus); experiment: Inhibition of RNA polymerase II in mouse B16-F1 migrating cells assessed as fold change in Smc1a-RNA stability at 0.1 mM measured by ChIP-seq analysis relative to control cells
[28] = target: T1, RNA polymerase II (Mus musculus); experiment: Inhibition of RNA polymerase II in mouse B16-F1 migrating cells assessed as fold change in Rpl41-RNA stability at 0.1 mM measured by ChIP-seq analysis relative to control cells
[29] = target: T1, RNA polymerase II (Mus musculus); experiment: Inhibition of RNA polymerase II in mouse B16-F1 migrating cells assessed as fold change in Crkl-RNA stability at 0.1 mM measured by ChIP-seq analysis relative to control cells
[30] = target: T1, RNA polymerase II (Mus musculus); experiment: Inhibition of RNA polymerase II in mouse B16-F1 migrating cells assessed as fold change in Lamtor1-RNA stability at 0.1 mM measured by ChIP-seq analysis relative to control cells

CCCc1cc(C)[nH]c(=O)c1CNC(=O)c1cc(-c2ccnc(N3CCN(C)CC3)c2)cc2c1cnn2C(C)C
log2FC [1]: 0.48 | log2FC [2]: 0.43 | log2FC [3]: -0.53 | log2FC [4]: -0.52 | log2FC [5]: 0.46 | log2FC [6]: -0.5 | log2FC [7]: 0.39 | log2FC [8]: 0.39 | log2FC [9]: 0.48 | log2FC [10]: 0.48 | log2FC [11]: 0.39 | log2FC [12]: 1.17 | log2FC [13]: 0.46 | log2FC [14]: 0.52

OC[C@H]1O[C@@H](n2cnc3cc(Cl)c(Cl)cc32)[C@H](O)[C@@H]1O
log2FC [15]: 0.43 | log2FC [16]: -0.48 | log2FC [17]: 0.4 | log2FC [18]: 0.59 | log2FC [19]: -0.42 | log2FC [20]: -0.77 | log2FC [21]: 0.4 | log2FC [22]: 0.59 | log2FC [23]: -0.74 | log2FC [24]: 0.44 | log2FC [25]: 0.82 | log2FC [26]: 0.4 | log2FC [27]: -0.72 | log2FC [28]: 0.47 | log2FC [29]: -0.64 | log2FC [30]: 0.52
